The list shows a part of the results.
Assays:
Test in all cases: log2 fold change, soluble protein after heating vs DMSO (PISA); higher = thermal stabilisation; K562 cells, 10 uM, 30 min; active = over 0.2 and 3.5 SD of the protein, either way, in both replicates (recomputed)
[1] = compound: C1=CC=C(C=C1)[C@H](COC2=CC3=C(C=C2)NC(=O)N3)NC(=O)C4=CC=CN(C4=O)CC5=CC(=C(C=C5)F)F
Outline: (§1)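 For each measurement, 10 μM compound was applied for 30 min to K562 cells at 2×10^6 cells/mL. Aliquots were heated for 3 min across 48°C-58°C, pooled, and extracted in PBS with 0.5% NP-40 at 4°C; the supernatant after 21,000xg for 90 min was soluble protein. This was quantified by TMTpro 16plex LC-MS/MS with channel sums equalised, and thermal stability was reported relative to control samples from duplicates, on a log2 fold-change scale.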

Protein sequences, listed by entry. Tags and fused reporters are not part of them. Lines headed by an entry give the natural chain unless they say otherwise; changes in a name come on top.
UniProt Q9UKG1: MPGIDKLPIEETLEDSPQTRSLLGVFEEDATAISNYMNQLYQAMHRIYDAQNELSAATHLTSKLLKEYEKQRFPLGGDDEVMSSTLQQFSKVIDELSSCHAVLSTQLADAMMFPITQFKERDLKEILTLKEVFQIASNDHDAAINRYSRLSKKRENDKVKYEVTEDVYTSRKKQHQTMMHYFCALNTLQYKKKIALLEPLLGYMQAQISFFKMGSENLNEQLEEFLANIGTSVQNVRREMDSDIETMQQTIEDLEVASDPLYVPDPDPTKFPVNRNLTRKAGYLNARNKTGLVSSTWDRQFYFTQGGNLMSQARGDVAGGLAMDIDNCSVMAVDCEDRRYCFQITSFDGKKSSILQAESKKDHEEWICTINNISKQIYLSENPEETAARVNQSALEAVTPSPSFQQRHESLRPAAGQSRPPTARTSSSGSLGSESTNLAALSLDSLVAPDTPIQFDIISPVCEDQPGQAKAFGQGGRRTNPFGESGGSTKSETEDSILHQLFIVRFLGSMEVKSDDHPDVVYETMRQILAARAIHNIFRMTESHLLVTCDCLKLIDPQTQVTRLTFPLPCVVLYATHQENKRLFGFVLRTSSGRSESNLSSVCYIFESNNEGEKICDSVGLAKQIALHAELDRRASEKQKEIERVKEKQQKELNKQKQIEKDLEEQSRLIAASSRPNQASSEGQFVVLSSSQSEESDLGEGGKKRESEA
UniProt Q9HDC9: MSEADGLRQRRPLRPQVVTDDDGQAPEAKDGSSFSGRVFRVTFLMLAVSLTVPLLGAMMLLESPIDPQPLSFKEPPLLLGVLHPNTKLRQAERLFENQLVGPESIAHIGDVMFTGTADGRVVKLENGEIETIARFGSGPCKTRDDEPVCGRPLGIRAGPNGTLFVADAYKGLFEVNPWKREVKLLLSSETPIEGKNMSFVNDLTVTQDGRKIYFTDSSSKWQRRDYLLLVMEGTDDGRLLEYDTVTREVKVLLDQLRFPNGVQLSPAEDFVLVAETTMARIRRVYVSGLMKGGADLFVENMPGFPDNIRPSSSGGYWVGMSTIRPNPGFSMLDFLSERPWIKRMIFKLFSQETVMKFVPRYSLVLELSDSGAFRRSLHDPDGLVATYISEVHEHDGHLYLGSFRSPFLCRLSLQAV
UniProt Q8NFD5, whole entry, looked up: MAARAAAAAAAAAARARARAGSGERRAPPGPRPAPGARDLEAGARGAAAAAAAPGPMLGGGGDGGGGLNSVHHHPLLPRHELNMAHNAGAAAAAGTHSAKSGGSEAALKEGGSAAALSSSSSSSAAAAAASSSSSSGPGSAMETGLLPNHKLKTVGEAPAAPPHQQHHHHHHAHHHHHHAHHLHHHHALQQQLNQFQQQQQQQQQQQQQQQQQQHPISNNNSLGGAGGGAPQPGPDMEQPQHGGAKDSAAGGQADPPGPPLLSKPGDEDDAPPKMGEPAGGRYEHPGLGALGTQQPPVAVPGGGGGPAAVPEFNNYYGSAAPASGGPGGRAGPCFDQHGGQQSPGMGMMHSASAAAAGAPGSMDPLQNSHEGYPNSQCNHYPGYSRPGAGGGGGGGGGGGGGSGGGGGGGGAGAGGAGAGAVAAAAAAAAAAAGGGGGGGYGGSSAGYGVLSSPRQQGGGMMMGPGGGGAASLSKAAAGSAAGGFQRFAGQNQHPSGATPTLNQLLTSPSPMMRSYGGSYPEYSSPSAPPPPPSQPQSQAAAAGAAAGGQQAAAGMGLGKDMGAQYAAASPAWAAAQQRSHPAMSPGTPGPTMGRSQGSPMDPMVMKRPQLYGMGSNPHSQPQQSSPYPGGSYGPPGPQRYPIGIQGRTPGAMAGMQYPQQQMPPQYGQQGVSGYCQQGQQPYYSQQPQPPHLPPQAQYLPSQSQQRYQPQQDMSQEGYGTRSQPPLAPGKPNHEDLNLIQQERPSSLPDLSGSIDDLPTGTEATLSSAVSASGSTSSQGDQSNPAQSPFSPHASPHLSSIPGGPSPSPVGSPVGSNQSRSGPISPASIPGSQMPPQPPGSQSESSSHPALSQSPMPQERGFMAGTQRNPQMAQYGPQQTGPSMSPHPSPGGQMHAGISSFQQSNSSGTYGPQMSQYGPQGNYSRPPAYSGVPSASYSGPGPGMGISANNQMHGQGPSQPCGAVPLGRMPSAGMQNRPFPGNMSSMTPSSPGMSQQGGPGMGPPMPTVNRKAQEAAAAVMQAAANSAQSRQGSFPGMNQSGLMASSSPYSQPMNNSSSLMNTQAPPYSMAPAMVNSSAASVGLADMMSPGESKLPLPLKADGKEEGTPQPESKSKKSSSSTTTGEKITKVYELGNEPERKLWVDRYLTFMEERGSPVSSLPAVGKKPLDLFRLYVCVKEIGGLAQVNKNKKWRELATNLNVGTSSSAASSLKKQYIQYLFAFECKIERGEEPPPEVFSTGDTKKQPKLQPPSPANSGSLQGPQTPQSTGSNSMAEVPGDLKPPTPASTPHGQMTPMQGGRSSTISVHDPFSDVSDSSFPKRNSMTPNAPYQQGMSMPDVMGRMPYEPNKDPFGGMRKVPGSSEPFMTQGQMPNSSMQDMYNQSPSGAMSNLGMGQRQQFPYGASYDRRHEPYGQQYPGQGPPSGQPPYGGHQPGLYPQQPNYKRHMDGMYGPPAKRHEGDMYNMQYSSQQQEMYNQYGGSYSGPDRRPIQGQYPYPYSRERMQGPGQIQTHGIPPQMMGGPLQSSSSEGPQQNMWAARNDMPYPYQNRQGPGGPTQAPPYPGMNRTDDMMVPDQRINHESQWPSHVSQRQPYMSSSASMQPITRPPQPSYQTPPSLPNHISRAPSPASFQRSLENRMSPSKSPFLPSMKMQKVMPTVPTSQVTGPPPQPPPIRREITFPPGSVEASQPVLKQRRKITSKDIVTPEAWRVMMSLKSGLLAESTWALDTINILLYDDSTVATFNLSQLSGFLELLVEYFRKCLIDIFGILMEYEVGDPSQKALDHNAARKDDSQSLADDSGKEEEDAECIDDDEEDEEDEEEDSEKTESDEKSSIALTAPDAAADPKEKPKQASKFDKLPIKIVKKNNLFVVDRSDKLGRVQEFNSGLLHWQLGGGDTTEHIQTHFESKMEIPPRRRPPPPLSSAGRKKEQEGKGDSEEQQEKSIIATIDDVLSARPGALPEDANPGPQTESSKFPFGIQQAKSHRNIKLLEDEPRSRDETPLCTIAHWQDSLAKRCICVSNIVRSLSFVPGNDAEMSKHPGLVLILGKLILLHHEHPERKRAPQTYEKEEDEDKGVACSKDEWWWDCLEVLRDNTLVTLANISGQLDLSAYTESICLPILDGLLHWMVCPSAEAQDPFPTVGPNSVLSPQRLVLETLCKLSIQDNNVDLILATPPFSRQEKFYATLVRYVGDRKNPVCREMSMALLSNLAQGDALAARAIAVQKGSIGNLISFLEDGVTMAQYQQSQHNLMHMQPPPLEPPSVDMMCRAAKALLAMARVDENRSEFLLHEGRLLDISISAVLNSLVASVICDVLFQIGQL
UniProt P48444: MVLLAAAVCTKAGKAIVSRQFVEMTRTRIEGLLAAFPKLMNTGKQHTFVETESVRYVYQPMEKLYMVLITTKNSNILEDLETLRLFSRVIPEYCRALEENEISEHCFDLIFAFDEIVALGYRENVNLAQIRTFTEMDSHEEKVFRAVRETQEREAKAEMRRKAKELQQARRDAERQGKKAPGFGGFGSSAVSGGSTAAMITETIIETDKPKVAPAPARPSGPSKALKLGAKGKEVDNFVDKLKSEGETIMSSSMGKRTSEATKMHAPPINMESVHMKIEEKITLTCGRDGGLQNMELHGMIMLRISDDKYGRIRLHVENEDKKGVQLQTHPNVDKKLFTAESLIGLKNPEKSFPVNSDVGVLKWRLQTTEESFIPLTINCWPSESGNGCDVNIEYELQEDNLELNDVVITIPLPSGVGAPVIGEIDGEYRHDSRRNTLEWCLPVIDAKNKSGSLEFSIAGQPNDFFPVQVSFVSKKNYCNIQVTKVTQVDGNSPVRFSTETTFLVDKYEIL
UniProt O95445: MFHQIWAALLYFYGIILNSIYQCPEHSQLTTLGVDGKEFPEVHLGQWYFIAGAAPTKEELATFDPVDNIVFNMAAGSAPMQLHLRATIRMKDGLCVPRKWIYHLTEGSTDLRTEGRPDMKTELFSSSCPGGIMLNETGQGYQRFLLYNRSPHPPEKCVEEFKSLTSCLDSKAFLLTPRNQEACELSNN
UniProt P39687: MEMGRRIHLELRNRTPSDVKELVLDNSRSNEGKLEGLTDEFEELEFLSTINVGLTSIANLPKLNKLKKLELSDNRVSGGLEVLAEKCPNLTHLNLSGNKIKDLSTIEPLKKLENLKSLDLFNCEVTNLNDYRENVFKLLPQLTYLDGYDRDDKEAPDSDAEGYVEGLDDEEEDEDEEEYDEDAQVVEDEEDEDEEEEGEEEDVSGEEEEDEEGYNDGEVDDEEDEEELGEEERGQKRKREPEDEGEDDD
UniProt Q6UXV4: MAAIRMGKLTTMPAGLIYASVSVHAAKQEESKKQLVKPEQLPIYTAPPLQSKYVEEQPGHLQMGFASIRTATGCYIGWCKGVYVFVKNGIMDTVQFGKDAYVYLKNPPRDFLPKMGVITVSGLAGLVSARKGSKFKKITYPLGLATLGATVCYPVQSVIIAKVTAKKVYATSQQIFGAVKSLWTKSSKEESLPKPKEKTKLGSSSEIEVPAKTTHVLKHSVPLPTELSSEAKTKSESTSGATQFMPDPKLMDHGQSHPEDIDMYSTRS
UniProt Q06481, whole entry, looked up: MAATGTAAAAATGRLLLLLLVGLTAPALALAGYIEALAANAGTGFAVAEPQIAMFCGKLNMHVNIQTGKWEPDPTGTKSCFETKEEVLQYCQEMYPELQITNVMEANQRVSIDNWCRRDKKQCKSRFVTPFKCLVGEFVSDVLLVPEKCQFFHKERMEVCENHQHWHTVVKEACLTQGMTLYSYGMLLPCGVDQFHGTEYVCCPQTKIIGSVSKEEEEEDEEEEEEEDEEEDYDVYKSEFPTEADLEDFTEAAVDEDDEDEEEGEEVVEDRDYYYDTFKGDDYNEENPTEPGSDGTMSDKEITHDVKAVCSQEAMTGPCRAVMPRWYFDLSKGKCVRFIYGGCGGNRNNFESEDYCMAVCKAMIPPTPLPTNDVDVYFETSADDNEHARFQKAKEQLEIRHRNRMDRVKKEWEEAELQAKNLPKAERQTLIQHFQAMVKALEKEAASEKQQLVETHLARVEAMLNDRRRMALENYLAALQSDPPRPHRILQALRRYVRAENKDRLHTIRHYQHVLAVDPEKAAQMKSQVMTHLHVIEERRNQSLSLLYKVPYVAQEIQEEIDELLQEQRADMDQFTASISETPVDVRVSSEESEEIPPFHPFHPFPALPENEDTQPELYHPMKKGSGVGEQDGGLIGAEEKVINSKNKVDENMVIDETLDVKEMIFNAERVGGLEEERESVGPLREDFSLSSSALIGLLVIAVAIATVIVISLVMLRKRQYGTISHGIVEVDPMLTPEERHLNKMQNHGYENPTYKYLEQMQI
UniProt P07741: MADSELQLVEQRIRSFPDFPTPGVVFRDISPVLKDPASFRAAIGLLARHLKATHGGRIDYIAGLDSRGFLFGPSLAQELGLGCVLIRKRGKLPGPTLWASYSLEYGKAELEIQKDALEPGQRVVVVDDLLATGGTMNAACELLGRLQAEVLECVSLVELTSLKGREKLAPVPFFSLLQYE
UniProt Q9UJX3, whole entry, looked up: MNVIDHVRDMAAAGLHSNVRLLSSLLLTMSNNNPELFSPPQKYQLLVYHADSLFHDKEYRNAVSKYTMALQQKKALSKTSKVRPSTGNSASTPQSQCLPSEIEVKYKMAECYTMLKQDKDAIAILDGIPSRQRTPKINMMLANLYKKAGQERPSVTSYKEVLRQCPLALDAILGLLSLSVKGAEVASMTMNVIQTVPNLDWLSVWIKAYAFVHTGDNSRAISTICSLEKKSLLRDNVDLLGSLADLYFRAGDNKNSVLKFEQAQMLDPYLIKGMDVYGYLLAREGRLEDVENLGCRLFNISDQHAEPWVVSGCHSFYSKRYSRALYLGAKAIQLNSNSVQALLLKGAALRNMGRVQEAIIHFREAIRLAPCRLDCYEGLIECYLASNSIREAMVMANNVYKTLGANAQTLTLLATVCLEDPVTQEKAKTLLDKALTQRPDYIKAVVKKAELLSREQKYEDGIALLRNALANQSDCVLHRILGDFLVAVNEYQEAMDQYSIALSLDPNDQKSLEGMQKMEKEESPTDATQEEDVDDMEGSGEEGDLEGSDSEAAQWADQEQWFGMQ
UniProt P02649, whole entry, looked up: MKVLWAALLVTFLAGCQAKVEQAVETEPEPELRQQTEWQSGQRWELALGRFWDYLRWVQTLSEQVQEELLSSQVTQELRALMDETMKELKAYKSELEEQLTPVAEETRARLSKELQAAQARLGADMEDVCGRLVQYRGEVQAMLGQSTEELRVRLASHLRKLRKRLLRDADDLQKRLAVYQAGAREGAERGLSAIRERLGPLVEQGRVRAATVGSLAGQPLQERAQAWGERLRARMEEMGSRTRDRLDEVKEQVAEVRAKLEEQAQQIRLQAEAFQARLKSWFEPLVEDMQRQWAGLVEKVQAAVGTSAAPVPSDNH

[2] = compound: CC1=C(SC2=C1C(=N[C@H](C3=NN=C(N32)C)CC(=O)N)C4=CC=C(C=C4)Cl)C
Outline: as §1

[3] = compound: CC1=C2C(=CC=C1)N=C(N(C2=O)C3=CC=CC=C3C)CN4C=NC5=C(N=CN=C54)N
Outline: as §1

[4] = compound: Cc1sc2c(c1C)C(c1ccc(Cl)cc1)=N[C@@H](CC(=O)OC(C)(C)C)c1nnc(C)n1-2
Outline: as §1

[5] = compound: c1ccc([C@@H]2C[C@H]2NC2CCNCC2)cc1
Outline: as §1

Measured: log2 fold change

ANXA1 (UniProt P04083)
inactive: [1] -0.091 | [2] 0.039 | [3] 0.052 | [4] -0.002 | [5] -0.021

ARHGAP12 (UniProt Q8IWW6)
inactive: [1] 0.171 | [2] 0.052 | [3] 0.086 | [4] -0.071 | [5] -0.139

APPL1 (UniProt Q9UKG1)
inactive: [1] -0.027 | [2] 0.122 | [3] 0.086 | [4] -0.025 | [5] -0.049

ARFRP1 (UniProt Q13795)
inactive: [1] 0 | [2] -0.066 | [3] -0.03 | [4] -0.021 | [5] 0.029

Quoted at random: two entries already listed.
ARHGAP12 (UniProt Q8IWW6)
inactive: [1] 0.171 | [2] 0.052 | [3] 0.086 | [4] -0.071 | [5] -0.139

ANXA1 (UniProt P04083)
inactive: [1] -0.091 | [2] 0.039 | [3] 0.052 | [4] -0.002 | [5] -0.021

Going on with the list:

AP4B1 (UniProt Q9Y6B7)
inactive: [1] 0.018 | [2] -0.073 | [3] 0 | [4] 0.016 | [5] -0.086

ARHGDIA (UniProt P52565)
inactive: [1] -0.044 | [2] 0.034 | [3] 0.008 | [4] -0.075 | [5] -0.065

ARHGAP4 isoform 2 (UniProt P98171)
inactive: [1] 0.211 | [2] -0.101 | [3] -0.069 | [4] -0.122 | [5] 0.008

AP5Z1 (UniProt O43299)
inactive: [1] 0.111 | [2] 0.075 | [3] 0.113 | [4] 0.1 | [5] -0.073

ANKRD29 (UniProt Q8N6D5)
inactive: [1] -0.012 | [2] 0.199 | [3] 0.248 | [4] -0.029 | [5] -0.079

AP2B1 isoform 2 (UniProt P63010)
inactive: [1] 0.023 | [2] -0.017 | [3] -0.016 | [4] 0.03 | [5] -0.002

ANXA11 (UniProt P50995)
inactive: [1] 0.116 | [2] 0.073 | [3] 0.099 | [4] -0.036 | [5] -0.024

ANK2 (UniProt Q01484)
inactive: [1] -0.019 | [2] 0.058 | [3] 0.071 | [4] 0.159 | [5] 0.02

ANK3 (UniProt Q12955)
inactive: [1] 0.064 | [2] 0.051 | [3] -0.021 | [4] 0.032 | [5] 0.025

ANKRD49 (UniProt Q8WVL7)
inactive: [1] 0.022 | [2] 0.002 | [3] 0.057 | [4] 0.003 | [5] 0.035

ANKRD46 (UniProt Q86W74)
inactive: [1] -0.027 | [2] -0.016 | [3] -0.023 | [4] -0.096 | [5] -0.004

APMAP (UniProt Q9HDC9)
inactive: [1] -0.002 | [2] 0.002 | [3] 0.028 | [4] -0.022 | [5] 0.011

ARHGEF2 (UniProt Q92974)
inactive: [1] 0.008 | [2] -0.255 | [3] -0.037 | [4] 0.224 | [5] -0.014

ARHGAP25 isoform 4 (UniProt P42331)
inactive: [1] -0.181 | [2] -0.171 | [3] -0.173 | [4] -0.018 | [5] 0.109

ANP32E (UniProt Q9BTT0)
inactive: [1] -0.092 | [2] -0.037 | [3] 0.14 | [4] -0.012 | [5] 0.075

ARID1B isoform 3 (UniProt Q8NFD5)
inactive: [1] -0.053

AP3S1 (UniProt Q92572)
inactive: [1] 0.008 | [2] 0.026 | [3] 0.037 | [4] 0.037 | [5] -0.008

APOA1 (UniProt P02647)
inactive: [1] -0.123 | [2] -0.102 | [3] 0.092 | [4] 0.083 | [5] -0.169

ARCN1 (UniProt P48444)
inactive: [1] -0.039 | [2] 0.022 | [3] -0.02 | [4] -0.033 | [5] 0.001

APOM (UniProt O95445)
inactive: [1] -0.012 | [2] -0.109 | [3] 0.044 | [4] 0.072 | [5] 0.18

ANKRD54 (UniProt Q6NXT1)
inactive: [1] 0.064 | [2] -0.087 | [3] -0.031 | [4] 0.029 | [5] 0.157

AP2S1 (UniProt P53680)
inactive: [1] -0.013 | [2] -0.007 | [3] -0.036 | [4] 0.037 | [5] 0.043

APEX1 (UniProt P27695)
inactive: [1] -0.095 | [2] 0.004 | [3] 0.031 | [4] 0.023 | [5] -0.009

ARFGAP2 (UniProt Q8N6H7)
inactive: [1] -0.006 | [2] 0.039 | [3] 0.086 | [4] -0.033 | [5] 0.006

ANP32A (UniProt P39687)
inactive: [1] -0.054 | [2] 0.015 | [3] 0.017 | [4] -0.005 | [5] -0.047

ARG2 (UniProt P78540)
inactive: [1] 0.071 | [2] -0.061 | [3] -0.034 | [4] 0.025 | [5] 0.044

ANXA2 (UniProt H0YMT9)
inactive: [1] 0.039

APOB (UniProt P04114)
inactive: [1] 0.041 | [2] 0.028 | [3] 0.055 | [4] 0.034 | [5] -0.013

ARHGDIB (UniProt P52566)
inactive: [1] -0.005 | [2] 0.004 | [3] 0.072 | [4] 0.029 | [5] -0.094

ARHGEF1 isoform 3 (UniProt Q92888)
inactive: [1] -0.046 | [2] -0.048 | [3] 0.069 | [4] 0.081 | [5] 0.048

ARF4 (UniProt P18085)
inactive: [1] 0 | [2] 0.045 | [3] 0.053 | [4] -0.082 | [5] -0.015

ARFIP1 isoform 2 (UniProt P53367)
inactive: [1] 0.009

APOOL (UniProt Q6UXV4)
inactive: [1] 0.042 | [2] -0.003 | [3] 0.012 | [4] 0.012 | [5] 0.024

ANAPC5 (UniProt Q9UJX4)
inactive: [1] -0.028 | [2] 0.015 | [3] 0.049 | [4] 0.064 | [5] 0.003

APIP (UniProt Q96GX9)
inactive: [1] -0.007 | [2] 0.011 | [3] 0.014 | [4] -0.008 | [5] 0.021

APLP2 (UniProt Q06481)
inactive: [1] 0.003 | [2] -0.003 | [3] 0 | [4] 0.036 | [5] 0.038

ARID1A (UniProt O14497)
inactive: [1] -0.071 | [2] 0.079 | [3] 0.115 | [4] -0.152 | [5] -0.019

3 consecutive entries from above, quoted:
ARFIP1 isoform 2 (UniProt P53367)
inactive: [1] 0.009

APOOL (UniProt Q6UXV4)
inactive: [1] 0.042 | [2] -0.003 | [3] 0.012 | [4] 0.012 | [5] 0.024

ANAPC5 (UniProt Q9UJX4)
inactive: [1] -0.028 | [2] 0.015 | [3] 0.049 | [4] 0.064 | [5] 0.003

(next part)

ANXA3 (UniProt P12429)
inactive: [1] -0.009 | [2] 0.067 | [3] 0.025 | [4] -0.013 | [5] -0.015

ARHGEF7 isoform 5 (UniProt Q14155)
inactive: [1] 0.199 | [2] -0.062 | [3] 0.112 | [4] -0.047 | [5] 0.093

APRT (UniProt P07741)
inactive: [1] 0.023 | [2] 0.052 | [3] 0.071 | [4] -0.042 | [5] 0.005

ANAPC7 (UniProt Q9UJX3)
inactive: [1] 0.027 | [2] -0.006 | [3] -0.007 | [4] 0.02 | [5] -0.029

ANKHD1 isoform 6 (UniProt Q8IWZ3)
inactive: [1] -0.018 | [2] -0.071 | [3] 0 | [4] 0.086 | [5] -0.001

ARGLU1 (UniProt Q9NWB6)
inactive: [1] 0.072 | [2] -0.117 | [3] -0.013 | [4] 0.01 | [5] 0.096

ARHGAP18 (UniProt Q8N392)
inactive: [1] -0.1 | [2] -0.038 | [3] 0.173 | [4] 0.03 | [5] 0.027

AP1AR (UniProt Q63HQ0)
inactive: [1] 0.054 | [2] -0.068 | [3] -0.023 | [4] -0.002 | [5] 0.038

ANKRD17 (UniProt O75179)
inactive: [1] 0 | [2] 0.019 | [3] 0.087 | [4] 0.031 | [5] -0.019

ARHGAP45 isoform 2 (UniProt Q92619)
inactive: [1] -0.027 | [2] -0.053 | [3] 0.024 | [4] 0.04 | [5] -0.037

APOE (UniProt P02649)
inactive: [1] -0.038 | [2] 0.002 | [3] 0.069 | [4] 0.046 | [5] -0.028

ARFGEF2 (UniProt Q9Y6D5)
inactive: [1] -0.032 | [2] 0.052 | [3] 0.029 | [4] 0.063 | [5] -0.017

ANAPC2 (UniProt Q9UJX6)
inactive: [1] -0.017 | [2] 0.016 | [3] -0.005 | [4] 0.017 | [5] -0.049
